This assay relates to L1210 leukemia ip in BDF1 mice, survival T/C. Briefly: NCI In Vivo Anticancer Drug Screen. Data for tumor model L1210 Leukemia (intraperitoneal) in B6D2F1 (BDF1) mice. The following applies: higher T/C = longer survival.
[1] abbreviates: T/C endpoint: mean survival time, dose: 15.0 mg/kg/injection, schedule: Q01DX Z (ip), vehicle: carboxymethylcellulose (CMC).
Where [2] appears, read: T/C endpoint: mean survival time, dose: 400.0 mg/kg/injection, schedule: Q01DX001 (ip), vehicle: carboxymethylcellulose (CMC).
[3] abbreviates: T/C endpoint: mean survival time, dose: 400.0 mg/kg/injection, schedule: Q01DX009 (ip), vehicle: Klucel (hydroxypropylcellulose) (HPC).
[4] abbreviates: T/C endpoint: mean survival time, dose: 400.0 mg/kg/injection, schedule: Q04DX003 (ip), vehicle: saline with Tween-80.
Setting [5] is: T/C endpoint: mean survival time, dose: 300.0 mg/kg/injection, schedule: Q01DX001 (ip), vehicle: carboxymethylcellulose (CMC).
Setting [6] is: T/C endpoint: mean survival time, dose: 200.0 mg/kg/injection, schedule: Q04DX003 (ip), vehicle: saline.
Setting [7] is: T/C endpoint: mean survival time, dose: 400.0 mg/kg/injection, schedule: Q04DX003 (ip), vehicle: saline.

Structures are written as SMILES. The list does not hold the whole screen: it gathers tests that were run many times, whatever their T/C, doses with no T/C, and many T/C values between a quarter and a half above the control. Other doses and runs of a compound stand elsewhere. T/C is the treated group as % of the vehicle group. Some doses have a count of surviving animals in place of a T/C: the source files T/C as zero there, which appears to mark a toxic dose or a test without result, not a measured value. Some doses without a T/C left all or most animals alive at the check, yet need not have been tolerated: survival well below the control is almost never listed, so the zero probably covers shortened survival too. Survivors were counted at the toxicity check, usually on the fifth day, unless a day is given; later deaths do not show. Schedule codes are those of the source, read here as Q, the interval in days (D) or hours (H), X, the number of doses. Some schedules carry Z or #; the key to these is not given. Some doses were run more than once; their values stand side by side, smallest first. For survival time, the PubChem record calls one and a half times the control and up active, and a quarter to a half above the control has no call in these data; cut-offs in other NCI protocols can differ. Some T/C values are followed by the survivors on the day toxicity was checked, most often the fifth; where none is given, no animal had died by that day.

Take `O=NN(CCCl)C(=O)Nc1ccccc1`: the T/C is, setting by setting: (T/C endpoint: mean survival time, dose: 2.0 mg/kg/injection, schedule: Q01DX Z (ip), vehicle: carboxymethylcellulose (CMC)) 130 % of control; (T/C endpoint: mean survival time, dose: 3.75 mg/kg/injection, schedule: Q01DX Z (ip), vehicle: carboxymethylcellulose (CMC)) 130 % of control; (T/C endpoint: mean survival time, dose: 4.0 mg/kg/injection, schedule: Q01DX Z (ip), vehicle: carboxymethylcellulose (CMC)) 129 % of control; (T/C endpoint: mean survival time, dose: 6.0 mg/kg/injection, schedule: Q01DX Z (ip), vehicle: carboxymethylcellulose (CMC)) 146 % of control; (T/C endpoint: mean survival time, dose: 7.5 mg/kg/injection, schedule: Q01DX Z (ip), vehicle: carboxymethylcellulose (CMC)) 146 % of control; (T/C endpoint: mean survival time, dose: 8.0 mg/kg/injection, schedule: Q01DX Z (ip), vehicle: carboxymethylcellulose (CMC)) 148 % of control. Further, the T/C (T/C endpoint: mean survival time, dose: 9.0 mg/kg/injection, schedule: Q01DX Z (ip), vehicle: carboxymethylcellulose (CMC)) is 133 % of control; the T/C (T/C endpoint: mean survival time, dose: 10.0 mg/kg/injection, schedule: Q01DX Z (ip), vehicle: carboxymethylcellulose (CMC)) was 137 % of control; the T/C under setting [1] was 142 % of control; the T/C (T/C endpoint: mean survival time, dose: 36.0 mg/kg/injection, schedule: Q01DX001 (ip), vehicle: carboxymethylcellulose (CMC)) was 133 % of control. Further, the survivor count reads like this: under setting [1], 6 of 6; (T/C endpoint: mean survival time, dose: 16.0 mg/kg/injection, schedule: Q01DX Z (ip), vehicle: carboxymethylcellulose (CMC)) 6 of 6; (T/C endpoint: mean survival time, dose: 20.0 mg/kg/injection, schedule: Q01DX Z (ip), vehicle: carboxymethylcellulose (CMC)) 6 of 6; (T/C endpoint: mean survival time, dose: 30.0 mg/kg/injection, schedule: Q01DX Z (ip), vehicle: carboxymethylcellulose (CMC)) 5 of 6; (T/C endpoint: mean survival time, dose: 40.0 mg/kg/injection, schedule: Q01DX Z (ip), vehicle: carboxymethylcellulose (CMC)) 4 of 6; (T/C endpoint: mean survival time, dose: 50.0 mg/kg/injection, schedule: Q01DX Z (ip), vehicle: carboxymethylcellulose (CMC)) 1 of 6, 4 of 6, 5 of 6. In addition, the survivor count is, setting by setting: (T/C endpoint: mean survival time, dose: 75.0 mg/kg/injection, schedule: Q01DX Z (ip), vehicle: carboxymethylcellulose (CMC)) 0 of 6; (T/C endpoint: mean survival time, dose: 100.0 mg/kg/injection, schedule: Q01DX Z (ip), vehicle: carboxymethylcellulose (CMC)) 0 of 6; (T/C endpoint: mean survival time, dose: 144.0 mg/kg/injection, schedule: Q01DX001 (ip), vehicle: carboxymethylcellulose (CMC)) 0 of 10; (T/C endpoint: mean survival time, dose: 150.0 mg/kg/injection, schedule: Q01DX Z (ip), vehicle: carboxymethylcellulose (CMC)) 0 of 6; (T/C endpoint: mean survival time, dose: 200.0 mg/kg/injection, schedule: Q01DX Z (ip), vehicle: carboxymethylcellulose (CMC)) 0 of 6; (T/C endpoint: mean survival time, dose: 288.0 mg/kg/injection, schedule: Q01DX001 (ip), vehicle: carboxymethylcellulose (CMC)) 0 of 10.
As to `Nc1c(Oc2cccc(C[N+]3(CCOS(=O)(=O)O)CC3)c2)cc(O)c2c1C(=O)c1ccccc1C2=O`, the survivor count under setting [2] was 0 of 4.
As to `CCN(CC)CCN(CC)C(=S)Nc1ccccc1`, the survivor count (T/C endpoint: mean survival time, dose: 100.0 mg/kg/injection, schedule: Q01DX009 (ip), vehicle: Klucel (hydroxypropylcellulose) (HPC)) is recorded as 0 of 6; the survivor count (T/C endpoint: mean survival time, dose: 200.0 mg/kg/injection, schedule: Q01DX009 (ip), vehicle: Klucel (hydroxypropylcellulose) (HPC)) was 1 of 6; the survivor count under setting [3] was 0 of 6.
In the case of `N#CCCP(CCC#N)CCCCCCP(CCC#N)CCC#N`, the survivor count runs as follows: (T/C endpoint: mean survival time, dose: 200.0 mg/kg/injection, schedule: Q04DX003 (ip), vehicle: saline with Tween-80) 3 of 6; under setting [4], 0 of 6.
`Cc1ccc([P+](Cc2ccccc2)(c2ccccc2)c2cccc3ccccc23)cc1` (configuration not stated): the survivor count (T/C endpoint: mean survival time, dose: 60.0 mg/kg/injection, schedule: Q01DX001 (ip), vehicle: carboxymethylcellulose (CMC)) is given as 1 of 6; the survivor count (T/C endpoint: mean survival time, dose: 75.0 mg/kg/injection, schedule: Q01DX001 (ip), vehicle: carboxymethylcellulose (CMC)) was 0 of 6; the survivor count (T/C endpoint: mean survival time, dose: 150.0 mg/kg/injection, schedule: Q01DX001 (ip), vehicle: carboxymethylcellulose (CMC)) was 0 of 6; the survivor count under setting [5] is on record as 0 of 6.
As for `NC(N)=Nc1ccc(/C=C2\C=Cc3ccccc32)cc1`, the survivor count reads like this: (T/C endpoint: mean survival time, dose: 100.0 mg/kg/injection, schedule: Q01DX001 (ip), vehicle: carboxymethylcellulose (CMC)) 6 of 6; under setting [2], 0 of 6.
Consider `CCOP(=O)(OCC)C1c2cc(Cl)ccc2-c2c(Cl)cc(Cl)cc21` (configuration not stated), for which the survivor count by setting is: (T/C endpoint: mean survival time, dose: 75.0 mg/kg/injection, schedule: Q01DX001 (ip), vehicle: saline) 0 of 6; (T/C endpoint: mean survival time, dose: 150.0 mg/kg/injection, schedule: Q01DX001 (ip), vehicle: saline) 0 of 6; (T/C endpoint: mean survival time, dose: 300.0 mg/kg/injection, schedule: Q01DX001 (ip), vehicle: saline) 0 of 6.
For `CC(C)(C)OC(=O)CNC(=O)C(Cc1ccccc1)NC(=O)C(N)CSC(c1ccccc1)(c1ccccc1)c1ccccc1` (configuration not stated), the T/C (T/C endpoint: mean survival time, dose: 600.0 mg/kg/injection, schedule: Q01DX001 (ip), vehicle: carboxymethylcellulose (CMC)) was 126 % of control. Moreover, the survivor count (T/C endpoint: mean survival time, dose: 600.0 mg/kg/injection, schedule: Q01DX001 (ip), vehicle: saline) is reported as 3 of 6.
In the case of `CC[N+](C)(CC)CCOC(=O)c1ccccc1Oc1ccc(C)cc1`, the survivor count runs as follows: under setting [6], 3 of 6; under setting [7], 2 of 6.
In the case of `CC(=O)Nc1ccc(Cc2ccc(Cl)cc2)cc1`, the survivor count (T/C endpoint: mean survival time, dose: 400.0 mg/kg/injection, schedule: Q01DX001 (ip), vehicle: saline) is listed as 0 of 6.
In the case of `N#C[CH2][Sn]([c]1ccccc1)([c]1ccccc1)[c]1ccccc1`, the survivor count reads like this: (T/C endpoint: mean survival time, dose: 100.0 mg/kg/injection, schedule: Q04DX002 (ip), vehicle: saline with Tween-80) 0 of 3; (T/C endpoint: mean survival time, dose: 200.0 mg/kg/injection, schedule: Q04DX002 (ip), vehicle: saline with Tween-80) 0 of 3; (T/C endpoint: mean survival time, dose: 400.0 mg/kg/injection, schedule: Q04DX002 (ip), vehicle: saline with Tween-80) 0 of 3.
`COc1ccc(C(C#N)=C2C=CC(=NO)C=C2)cc1`: the survivor count reads like this: (T/C endpoint: mean survival time, dose: 200.0 mg/kg/injection, schedule: Q01DX009 (ip), vehicle: saline with Tween-80) 5 of 6; (T/C endpoint: mean survival time, dose: 400.0 mg/kg/injection, schedule: Q01DX009 (ip), vehicle: saline with Tween-80) 1 of 6.
Take `N=C(N)c1ccc(-c2cc3ccc(C(=N)N)cc3s2)cc1`: the survivor count was 2 of 4 (T/C endpoint: mean survival time, dose: 100.0 mg/kg/injection, schedule: Q04DX003 (ip), vehicle: saline); 0 of 4 under setting [6]; 0 of 4 under setting [7].
In the case of `CCC(C)C(CN)(CCCCN1CCCCC1)c1cccc2ccccc12` (configuration not stated), the survivor count under setting [4] is 0 of 6.
Turning to `CC(=O)OCc1ccc(O)c2ncccc12`, under setting [5], the survivor count was 0 of 6.
On to `OC1CCC2CCCC2C1` (configuration not stated), for which the survivor count under setting [3] was 3 of 6.
Consider `Oc1ccccc1C1CCCCC1`, for which the survivor count runs as follows: (T/C endpoint: mean survival time, dose: 100.0 mg/kg/injection, schedule: Q01DX009 (ip), vehicle: gum acacia) 6 of 6; (T/C endpoint: mean survival time, dose: 200.0 mg/kg/injection, schedule: Q01DX009 (ip), vehicle: gum acacia) 0 of 6; (T/C endpoint: mean survival time, dose: 400.0 mg/kg/injection, schedule: Q01DX009 (ip), vehicle: gum acacia) 0 of 6.
Turning to `Nc1nc(N)c(-c2ccc(Cl)c(Cl)c2)c(CCc2ccc(S(=O)(=O)F)cc2)n1`, under setting [3], the survivor count was 4 of 6.
As to `c1ccc(-c2nnc3ccccn23)cc1`, the survivor count (T/C endpoint: mean survival time, dose: 400.0 mg/kg/injection, schedule: Q01DX001 (ip), vehicle: Klucel (hydroxypropylcellulose) (HPC)) is listed as 0 of 6.
Turning to `OCCN1CCN(CCCN2c3ccccc3Sc3cccnc32)CC1`, the T/C is, setting by setting: (T/C endpoint: mean survival time, dose: 80.0 mg/kg/injection, schedule: Q01DX009 (ip), vehicle: saline) 131 % of control [5 of 6 alive]; (T/C endpoint: median survival time, dose: 80.0 mg/kg/injection, schedule: Q01DX009 (ip), vehicle: saline) 134 % of control [5 of 6 alive]. Besides, the survivor count is listed as 0 of 6 (T/C endpoint: mean survival time, dose: 160.0 mg/kg/injection, schedule: Q01DX009 (ip), vehicle: saline) and 0 of 6 (T/C endpoint: median survival time, dose: 160.0 mg/kg/injection, schedule: Q01DX009 (ip), vehicle: saline).

Source of the values: PubChem BioAssay AID248 (DTP/NCI, 2004).
